This assay has as its target T1, 3× FLAG–TROAP fusion (trophinin-associated protein) (human) (UniProt Q12815).
T1 sequence: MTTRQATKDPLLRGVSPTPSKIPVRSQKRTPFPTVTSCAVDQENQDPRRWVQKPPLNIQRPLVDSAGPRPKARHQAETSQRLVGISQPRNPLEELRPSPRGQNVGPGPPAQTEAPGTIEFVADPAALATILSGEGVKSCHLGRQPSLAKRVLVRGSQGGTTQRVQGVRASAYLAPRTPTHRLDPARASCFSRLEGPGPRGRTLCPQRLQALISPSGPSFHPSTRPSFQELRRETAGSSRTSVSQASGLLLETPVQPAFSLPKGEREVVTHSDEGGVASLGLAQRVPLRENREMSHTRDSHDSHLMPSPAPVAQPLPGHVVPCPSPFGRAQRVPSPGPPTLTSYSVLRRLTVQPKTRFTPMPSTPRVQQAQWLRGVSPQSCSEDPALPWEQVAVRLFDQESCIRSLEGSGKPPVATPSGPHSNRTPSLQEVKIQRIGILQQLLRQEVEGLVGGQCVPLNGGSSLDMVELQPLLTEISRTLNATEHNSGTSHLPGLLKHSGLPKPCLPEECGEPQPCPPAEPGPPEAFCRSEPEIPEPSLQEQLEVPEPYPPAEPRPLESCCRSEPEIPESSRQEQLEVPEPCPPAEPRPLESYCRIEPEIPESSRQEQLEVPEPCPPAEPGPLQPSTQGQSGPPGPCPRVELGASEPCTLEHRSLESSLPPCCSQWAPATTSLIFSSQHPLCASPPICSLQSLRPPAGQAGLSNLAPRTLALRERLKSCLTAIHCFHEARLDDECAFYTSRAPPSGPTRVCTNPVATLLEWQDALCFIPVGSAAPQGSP
Briefly: co-IP; 786-O cells infected with 3× FLAG–TROAP lentivirus (OE) or control; FLAG beads (Sigma); Western blot of the precipitate. (Immunoblotting shows a protein as a band on a membrane.)

Protein sequences, listed by entry. Tags and fused reporters are not part of them.
UniProt P53350: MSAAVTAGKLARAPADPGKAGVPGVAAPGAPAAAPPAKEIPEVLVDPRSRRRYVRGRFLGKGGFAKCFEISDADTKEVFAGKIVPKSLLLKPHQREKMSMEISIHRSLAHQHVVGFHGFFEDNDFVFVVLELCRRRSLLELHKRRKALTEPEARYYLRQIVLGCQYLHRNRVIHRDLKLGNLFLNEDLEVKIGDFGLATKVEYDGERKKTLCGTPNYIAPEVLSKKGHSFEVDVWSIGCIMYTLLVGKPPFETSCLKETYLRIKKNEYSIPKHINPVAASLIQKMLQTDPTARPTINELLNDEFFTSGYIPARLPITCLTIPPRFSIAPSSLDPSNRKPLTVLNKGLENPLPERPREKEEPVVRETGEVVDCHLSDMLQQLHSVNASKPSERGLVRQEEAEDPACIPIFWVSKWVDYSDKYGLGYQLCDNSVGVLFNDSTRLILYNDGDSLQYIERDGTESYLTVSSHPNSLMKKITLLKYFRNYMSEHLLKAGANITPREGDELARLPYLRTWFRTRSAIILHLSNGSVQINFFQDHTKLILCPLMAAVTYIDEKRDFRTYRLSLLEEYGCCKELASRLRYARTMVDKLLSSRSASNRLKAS
UniProt P06748: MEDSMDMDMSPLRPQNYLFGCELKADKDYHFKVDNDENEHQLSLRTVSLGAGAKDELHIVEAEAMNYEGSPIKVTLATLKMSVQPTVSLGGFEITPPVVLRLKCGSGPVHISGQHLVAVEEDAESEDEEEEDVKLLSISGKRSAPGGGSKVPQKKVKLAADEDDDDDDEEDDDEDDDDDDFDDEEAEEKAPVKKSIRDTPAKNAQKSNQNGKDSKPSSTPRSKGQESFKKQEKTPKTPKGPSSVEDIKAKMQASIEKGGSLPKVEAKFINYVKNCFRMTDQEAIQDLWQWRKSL
UniProt P40763: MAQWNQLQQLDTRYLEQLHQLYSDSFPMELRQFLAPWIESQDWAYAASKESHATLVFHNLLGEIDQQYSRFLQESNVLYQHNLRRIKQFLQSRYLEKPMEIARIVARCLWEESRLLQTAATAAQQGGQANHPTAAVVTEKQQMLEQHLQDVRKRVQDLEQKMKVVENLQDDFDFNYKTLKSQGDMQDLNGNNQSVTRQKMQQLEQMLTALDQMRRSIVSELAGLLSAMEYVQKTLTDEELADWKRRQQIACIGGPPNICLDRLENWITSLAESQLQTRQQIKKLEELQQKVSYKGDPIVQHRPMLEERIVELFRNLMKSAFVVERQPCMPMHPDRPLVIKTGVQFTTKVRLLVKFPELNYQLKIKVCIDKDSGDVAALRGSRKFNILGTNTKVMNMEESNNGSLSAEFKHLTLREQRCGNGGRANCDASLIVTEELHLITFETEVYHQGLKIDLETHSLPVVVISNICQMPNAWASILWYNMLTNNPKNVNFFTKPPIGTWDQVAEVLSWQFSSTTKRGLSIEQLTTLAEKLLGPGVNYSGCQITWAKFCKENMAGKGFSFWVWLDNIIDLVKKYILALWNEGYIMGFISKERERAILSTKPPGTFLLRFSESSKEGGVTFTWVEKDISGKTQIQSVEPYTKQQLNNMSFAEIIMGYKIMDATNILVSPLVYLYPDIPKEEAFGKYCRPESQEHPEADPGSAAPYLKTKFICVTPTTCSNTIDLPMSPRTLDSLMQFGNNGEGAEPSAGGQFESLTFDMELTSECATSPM

These are yes or no findings as the source states them, for the method shown. Binding seen in cells or lysates may run through a third protein. Some entries that bind do so weakly or less than the wild type. Tags and fused reporters may be left off the sequences shown.

Take p-PLK1 (from UniProt P53350 1-603): the binding entry is recorded as “no binding”.

Regarding p-NPM1 (from UniProt P06748 1-294), the binding entry is listed as “no binding”.

As for “activated p-STAT3 protein (phosphorylated signal transducer and activator of transcription 3) (from UniProt P40763 1-770)”, the binding result is recorded as “binds”.

B1: p-RB1 (protein, UniProt P06400 1-928)
chain: MPPKTPRKTAATAAAAAAEPPAPPPPPPPEEDPEQDSGPEDLPLVRLEFEETEEPDFTALCQKLKIPDHVRERAWLTWEKVSSVDGVLGGYIQKKKELWGICIFIAAVDLDEMSFTFTELQKNIEISVHKFFNLLKEIDTSTKVDNAMSRLLKKYDVLFALFSKLERTCELIYLTQPSSSISTEINSALVLKVSWITFLLAKGEVLQMEDDLVISFQLMLCVLDYFIKLSPPMLLKEPYKTAVIPINGSPRTPRRGQNRSARIAKQLENDTRIIEVLCKEHECNIDEVKNVYFKNFIPFMNSLGLVTSNGLPEVENLSKRYEEIYLKNKDLDARLFLDHDKTLQTDSIDSFETQRTPRKSNLDEEVNVIPPHTPVRTVMNTIQQLMMILNSASDQPSENLISYFNNCTVNPKESILKRVKDIGYIFKEKFAKAVGQGCVEIGSQRYKLGVRLYYRVMESMLKSEEERLSIQNFSKLLNDNIFHMSLLACALEVVMATYSRSTSQNLDSGTDLSFPWILNVLNLKAFDFYKVIESFIKAEGNLTREMIKHLERCEHRIMESLAWLSDSPLFDLIKQSKDREGPTDHLESACPLNLPLQNNHTAADMYLSPVRSPKKKGSTTRVNSTANAETQATSAFQTQKPLKSTSLSLFYKKVYRLAYLRLNTLCERLLSEHPELEHIIWTLFQHTLQNEYELMRDRHLDQIMMCSMYGICKVKNIDLKFKIIVTAYKDLPHAVQETFKRVLIKEEEYDSIIVFYNSVFMQRLKTNILQYASTRPPTLSPIPHIPRSPYKFPSSPLRIPGGNIYISPLKSPYKISEGLPTPTKMTPRSRILVSIGESFGTSEKFQKINQMVCNSDRVLKRSAEGSNPPKPLKKLRFDIEGSDEADGSKHLPGESKFQQKLAEMTSTRTRMQKQKMNDSMDTSNKEEK
modifications: phosphorylated (p-RB1); site not given
In the case of B1, the binding result is recorded as “no binding”.

For the origin of these results see PMC10253451.
